PubChem BioAssay AID686938, Drosophila RNAi Screening Center, 2013
Purpose: 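Fly genes required for calcium entry once internal stores are emptied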 (primary screen). System: Drosophila S2R+ cells. Knock-down reagent: long dsRNA against Drosophila genes, about 0.25 µg dsRNA per well, roughly 10,000 cells. Time to read-out: 5 days of knock-down before the calcium assay. Treatment: thapsigargin (SERCA pump blocker) to empty calcium stores; entry signal taken 4 min after adding it. Measured: 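Duplicate raw fluo-4 intensities per well from a plate reader, at rest and four minutes after thapsigargin emptied calcium stores; entry-to-rest ratio filled for only some wells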. Direction: calcium entry signal: higher = stronger calcium signal after store depletion; entry to resting ratio: higher = more calcium entry relative to resting level; resting calcium signal: higher = higher resting calcium signal. Rule for the call: 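Called when the plate z-score of the entry-to-rest ratio, mean of duplicates, falls below −3; wells with low overall dye signal (Fmax z below −2) or more than five off-targets excluded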. Calls: active = strongly reduced calcium entry; inactive = no strong reduction.
In all, the deposit lists about 23,000 reagents; shown is a random part of those that have a named target and a result. Of all reagents, 75 (0.33%) are marked active. 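Raw plate signals without normalisation; calls rest on plate z-scores that were not deposited; ratio present for only 364 wells.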 A number with no mark means an inactive call. Not stated in the record: the dose of the treatment.

RpL36A (GeneID 34098) [DRSC03055] showed calcium entry signal, replicate 1 (fluorescence units) = 2.17e7; calcium entry signal, replicate 2 (fluorescence units) = 1.87e7; resting calcium signal, replicate 1 (fluorescence units) = 1.34e7; resting calcium signal, replicate 2 (fluorescence units) = 1.19e7.
With knock-down of ms(2)35Ci (GeneID 49529) [DRSC01460], the record shows calcium entry signal, replicate 1 (fluorescence units) = 2.77e7; calcium entry signal, replicate 2 (fluorescence units) = 3.23e7; resting calcium signal, replicate 1 (fluorescence units) = 1.47e7; resting calcium signal, replicate 2 (fluorescence units) = 1.45e7.
Knock-down of CG12521 (GeneID 50289) [DRSC09893] came out at: calcium entry signal, replicate 1 (fluorescence units) = 3.12e7; calcium entry signal, replicate 2 (fluorescence units) = 3.91e7; resting calcium signal, replicate 1 (fluorescence units) = 1.57e7; resting calcium signal, replicate 2 (fluorescence units) = 1.52e7.
Against gfzf (GeneID 40858) [DRSC12506] the deposit lists calcium entry signal, replicate 1 (fluorescence units) = 3.98e7; calcium entry signal, replicate 2 (fluorescence units) = 3.14e7; resting calcium signal, replicate 1 (fluorescence units) = 2.35e7; resting calcium signal, replicate 2 (fluorescence units) = 1.60e7.
gfzf (GeneID 40858) [DRSC21874] scored calcium entry signal, replicate 1 (fluorescence units) = 2.68e7; calcium entry signal, replicate 2 (fluorescence units) = 4.91e7; resting calcium signal, replicate 1 (fluorescence units) = 1.57e7; resting calcium signal, replicate 2 (fluorescence units) = 2.37e7.
Against Rph (GeneID 32002) [DRSC17790], the entry reads calcium entry signal, replicate 1 (fluorescence units) = 4.25e7; calcium entry signal, replicate 2 (fluorescence units) = 5.09e7; resting calcium signal, replicate 1 (fluorescence units) = 1.98e7; resting calcium signal, replicate 2 (fluorescence units) = 2.52e7.
After knock-down of ProRS-m (GeneID 38331) [DRSC08261] the results were calcium entry signal, replicate 1 (fluorescence units) = 3.76e7; calcium entry signal, replicate 2 (fluorescence units) = 4.22e7; resting calcium signal, replicate 1 (fluorescence units) = 1.89e7; resting calcium signal, replicate 2 (fluorescence units) = 1.67e7.
After knock-down of CG7386 (GeneID 38719) [DRSC10832] the results were calcium entry signal, replicate 1 (fluorescence units) = 3.49e7; calcium entry signal, replicate 2 (fluorescence units) = 5.23e7; resting calcium signal, replicate 1 (fluorescence units) = 1.59e7; resting calcium signal, replicate 2 (fluorescence units) = 2.37e7.
With knock-down of THG (GeneID 34876) [DRSC01896] the results were calcium entry signal, replicate 1 (fluorescence units) = 3.89e7; calcium entry signal, replicate 2 (fluorescence units) = 2.43e7; resting calcium signal, replicate 1 (fluorescence units) = 1.85e7; resting calcium signal, replicate 2 (fluorescence units) = 1.27e7.
Knock-down of NitFhit (GeneID 38029) [DRSC08680] gave: calcium entry signal, replicate 1 (fluorescence units) = 3.84e7; calcium entry signal, replicate 2 (fluorescence units) = 4.42e7; resting calcium signal, replicate 1 (fluorescence units) = 1.98e7; resting calcium signal, replicate 2 (fluorescence units) = 2.14e7.
Against Patr-1 (GeneID 42058) [DRSC14159] the deposit lists calcium entry signal, replicate 1 (fluorescence units) = 2.52e7; calcium entry signal, replicate 2 (fluorescence units) = 2.35e7; resting calcium signal, replicate 1 (fluorescence units) = 1.43e7; resting calcium signal, replicate 2 (fluorescence units) = 1.20e7.
With knock-down of Orct (GeneID 42891) [DRSC16777], the screen gave calcium entry signal, replicate 1 (fluorescence units) = 3.27e7; calcium entry signal, replicate 2 (fluorescence units) = 3.16e7; resting calcium signal, replicate 1 (fluorescence units) = 1.57e7; resting calcium signal, replicate 2 (fluorescence units) = 1.41e7.
With knock-down of Ice1 (GeneID 37701) [DRSC04191], the screen gave calcium entry signal, replicate 1 (fluorescence units) = 1.84e7; calcium entry signal, replicate 2 (fluorescence units) = 1.87e7; resting calcium signal, replicate 1 (fluorescence units) = 1.12e7; resting calcium signal, replicate 2 (fluorescence units) = 1.02e7.
Depletion of RpS11 (GeneID 36321) [DRSC07289] gave: calcium entry signal, replicate 1 (fluorescence units) = 1.36e7; calcium entry signal, replicate 2 (fluorescence units) = 2.59e7; resting calcium signal, replicate 1 (fluorescence units) = 8.40e6; resting calcium signal, replicate 2 (fluorescence units) = 1.29e7.
Depletion of RpS11 (GeneID 36321) [DRSC22700] gave: calcium entry signal, replicate 1 (fluorescence units) = 1.48e7; calcium entry signal, replicate 2 (fluorescence units) = 2.09e7; resting calcium signal, replicate 1 (fluorescence units) = 9.94e6; resting calcium signal, replicate 2 (fluorescence units) = 1.30e7.
With knock-down of TTLL6A (GeneID 37253) [DRSC06618], the record shows calcium entry signal, replicate 1 (fluorescence units) = 4.34e7; calcium entry signal, replicate 2 (fluorescence units) = 5.77e7; resting calcium signal, replicate 1 (fluorescence units) = 1.92e7; resting calcium signal, replicate 2 (fluorescence units) = 2.60e7.
Against MME1 (GeneID 33987) [DRSC02714], the entry reads calcium entry signal, replicate 1 (fluorescence units) = 4.69e7; resting calcium signal, replicate 1 (fluorescence units) = 2.16e7.
For CG14818 (GeneID 31147) [DRSC18548], the entry reads calcium entry signal, replicate 1 (fluorescence units) = 5.79e7; calcium entry signal, replicate 2 (fluorescence units) = 6.25e7; entry to resting ratio 2.1; resting calcium signal, replicate 1 (fluorescence units) = 2.73e7; resting calcium signal, replicate 2 (fluorescence units) = 2.64e7.
Depletion of mib2 (GeneID 35170) [DRSC02623] gave: calcium entry signal, replicate 1 (fluorescence units) = 4.38e7; resting calcium signal, replicate 1 (fluorescence units) = 2.20e7.
Silencing of eIF4H2 (GeneID 43645) [DRSC14582] came out at: calcium entry signal, replicate 1 (fluorescence units) = 4.97e7; calcium entry signal, replicate 2 (fluorescence units) = 4.97e7; resting calcium signal, replicate 1 (fluorescence units) = 2.28e7; resting calcium signal, replicate 2 (fluorescence units) = 2.36e7.
CG10853 (GeneID 38465) [DRSC08164] gave calcium entry signal, replicate 1 (fluorescence units) = 3.83e7; calcium entry signal, replicate 2 (fluorescence units) = 5.47e7; resting calcium signal, replicate 1 (fluorescence units) = 1.88e7; resting calcium signal, replicate 2 (fluorescence units) = 2.32e7.

In a second layout: 3 of the entries above
Orct (GeneID 42891) [DRSC16777]
- calcium entry signal, replicate 1 (fluorescence units): 3.27e7
- calcium entry signal, replicate 2 (fluorescence units): 3.16e7
- resting calcium signal, replicate 1 (fluorescence units): 1.57e7
- resting calcium signal, replicate 2 (fluorescence units): 1.41e7

Ice1 (GeneID 37701) [DRSC04191]
- calcium entry signal, replicate 1 (fluorescence units): 1.84e7
- calcium entry signal, replicate 2 (fluorescence units): 1.87e7
- resting calcium signal, replicate 1 (fluorescence units): 1.12e7
- resting calcium signal, replicate 2 (fluorescence units): 1.02e7

RpS11 (GeneID 36321) [DRSC07289]
- calcium entry signal, replicate 1 (fluorescence units): 1.36e7
- calcium entry signal, replicate 2 (fluorescence units): 2.59e7
- resting calcium signal, replicate 1 (fluorescence units): 8.40e6
- resting calcium signal, replicate 2 (fluorescence units): 1.29e7
